Experiment [1] has as its target T1, GST-NopL (Sinorhizobium fredii HH103) (UniProt P55704).
T1 sequence: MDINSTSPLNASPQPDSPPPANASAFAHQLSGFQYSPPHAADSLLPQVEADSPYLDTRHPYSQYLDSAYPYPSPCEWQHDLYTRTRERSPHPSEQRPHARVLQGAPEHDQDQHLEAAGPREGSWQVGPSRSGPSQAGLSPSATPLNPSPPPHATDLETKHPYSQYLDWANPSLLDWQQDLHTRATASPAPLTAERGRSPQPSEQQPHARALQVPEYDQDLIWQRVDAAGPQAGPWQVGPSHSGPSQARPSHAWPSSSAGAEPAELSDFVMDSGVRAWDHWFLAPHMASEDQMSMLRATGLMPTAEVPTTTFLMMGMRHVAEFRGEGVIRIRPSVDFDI
As to the kind of experiment: pull-down; in vitro GST pull-down: His-tagged remorin incubated with GST or GST-NopL (bait) in 20 mM Tris-HCl, 100 mM NaCl, 0.1 mM EDTA, 0.2% Triton X-100, pH 7.4; Glutathione Magarose Beads, 4 °C; anti-GST and anti-His blots; both purified.

Experiment [2] concerns the target T2, NopL-GFP (Sinorhizobium fredii HH103) (UniProt P55704).
T2 sequence: T1 sequence
As to the kind of experiment: co-IP; soybean hairy roots co-expressing 35S:NopL-GFP and REM1a/1b-Myc; IP with anti-GFP antibody (rabbit IgG as control), blot with anti-Myc.

For experiment [3], the target named is T3, NopL, yeast two-hybrid fusion (Gal4 system) (Sinorhizobium fredii HH103) (UniProt P55704).
T3 sequence: T1 sequence
As to the kind of experiment: two-hybrid; Gal4 yeast two-hybrid, strain AH109.

The target of experiment [4] is GmNFR5-FLAG (Glycine max). As to the kind of experiment: co-IP; soybean hairy roots expressing GmNFR5-FLAG and NopL-GFP; blots with anti-FLAG and anti-GFP; which partner was precipitated is not told.

These are yes or no findings as the source states them, for the method shown. Binding can be weak; no strength is given. Where a sequence is shown, tags or fusion partners need not be part of it. For some assays here: Binding seen in cells or lysates may run through a third protein.

Take His-GmREM1a (Glycine max): the binding result in experiment [1] is “binds”.

Regarding GmREM1b-Myc (Glycine max), in experiment [2], the binding result was “binds”.

Regarding “GmREM1a, yeast two-hybrid fusion (Gal4 system) (Glycine max)”, in experiment [3], the binding result was “binds”.

On to GmREM1a-Myc (Glycine max), for which the binding result in experiment [2] is given as “binds”.

B1: NopL-GFP (protein, UniProt P55704 1-338)
chain: T1 sequence
For B1, the binding entry in experiment [4] is “binds”.

The record behind these values is PMC11239682.
